Measurements reported in PubChem BioAssay AID504774 (Drosophila RNAi Screening Center, 2011).
Screen: 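Genes required for cells to withstand methyl methanesulphonate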 (primary screen). Cell system: Drosophila Kc167 cells. Knock-down reagent: long dsRNA against Drosophila genes, about 0.25 µg dsRNA per well. Time to read-out: about 6 days: 3 days knock-down, then 3 days with or without MMS. Challenge: methyl methanesulphonate 0.004% (w/v) for 3 days after knock-down. Read-out: 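Viability in wells given MMS, read as ATP luminescence, normalised by quantiles plate by plate and averaged across replicates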. Reading the numbers: mean viability with MMS and viability with MMS: higher = more surviving cells after MMS.
The screen tested about 23,000 reagents; below is a random part of those with a known target gene and a result. 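Values are quantile-normalised luminescence on an arbitrary scale; higher means more cells surviving MMS.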 Names joined by + are all predicted targets of the reagent. Further read-outs or replicates are left out here.

CG34462 [DRSC10768]
- mean viability with MMS: 3.59e6
- viability with MMS, replicate 1: 4.23e6

Srpk79D (Serine-arginine protein kinase at 79D) [DRSC11668]
- mean viability with MMS: 3.68e6
- viability with MMS, replicate 1: 4.15e6

Srpk79D (Serine-arginine protein kinase at 79D) [DRSC11856]
- mean viability with MMS: 3.44e6
- viability with MMS, replicate 1: 3.91e6

Coq4 + frc [DRSC10381]
- mean viability with MMS: 3.41e6
- viability with MMS, replicate 1: 3.83e6

Coq4 + frc [DRSC10382]
- mean viability with MMS: 3.45e6
- viability with MMS, replicate 1: 3.83e6

Next part, starting with the last 2 of the part before.
Coq4 + frc [DRSC10381]
- mean viability with MMS: 3.41e6
- viability with MMS, replicate 1: 3.83e6

Coq4 + frc [DRSC10382]
- mean viability with MMS: 3.45e6
- viability with MMS, replicate 1: 3.83e6

CG34005 [DRSC05700]
- mean viability with MMS: 3.53e6
- viability with MMS, replicate 1: 4.05e6

CG14691 [DRSC14914]
- mean viability with MMS: 3.46e6
- viability with MMS, replicate 1: 3.92e6

Mat1 (Menage a trois 1) [DRSC07465]
- mean viability with MMS: 3.26e6
- viability with MMS, replicate 1: 3.71e6

Cpr47Eb (Cuticular protein 47Eb) [DRSC06345]
- mean viability with MMS: 3.52e6
- viability with MMS, replicate 1: 3.90e6

Ing3 (Inhibitor of growth family, member 3) [DRSC20002]
- mean viability with MMS: 3.51e6
- viability with MMS, replicate 1: 3.63e6

Usp20-33 (Ubiquitin specific protease 20/33) [DRSC07196]
- mean viability with MMS: 3.60e6
- viability with MMS, replicate 1: 3.94e6

CG13931 [DRSC08400]
- mean viability with MMS: 3.49e6
- viability with MMS, replicate 1: 3.97e6

dmpd (dampened) [DRSC06092]
- mean viability with MMS: 3.66e6
- viability with MMS, replicate 1: 4.13e6

CG14961 [DRSC08420]
- mean viability with MMS: 3.52e6
- viability with MMS, replicate 1: 4.03e6
